Assay [1] addresses T1, phosphofructokinase, liver type (PFKL) (rat (endogenous in primary rat VSMCs)) (UniProt P30835).
T1 sequence: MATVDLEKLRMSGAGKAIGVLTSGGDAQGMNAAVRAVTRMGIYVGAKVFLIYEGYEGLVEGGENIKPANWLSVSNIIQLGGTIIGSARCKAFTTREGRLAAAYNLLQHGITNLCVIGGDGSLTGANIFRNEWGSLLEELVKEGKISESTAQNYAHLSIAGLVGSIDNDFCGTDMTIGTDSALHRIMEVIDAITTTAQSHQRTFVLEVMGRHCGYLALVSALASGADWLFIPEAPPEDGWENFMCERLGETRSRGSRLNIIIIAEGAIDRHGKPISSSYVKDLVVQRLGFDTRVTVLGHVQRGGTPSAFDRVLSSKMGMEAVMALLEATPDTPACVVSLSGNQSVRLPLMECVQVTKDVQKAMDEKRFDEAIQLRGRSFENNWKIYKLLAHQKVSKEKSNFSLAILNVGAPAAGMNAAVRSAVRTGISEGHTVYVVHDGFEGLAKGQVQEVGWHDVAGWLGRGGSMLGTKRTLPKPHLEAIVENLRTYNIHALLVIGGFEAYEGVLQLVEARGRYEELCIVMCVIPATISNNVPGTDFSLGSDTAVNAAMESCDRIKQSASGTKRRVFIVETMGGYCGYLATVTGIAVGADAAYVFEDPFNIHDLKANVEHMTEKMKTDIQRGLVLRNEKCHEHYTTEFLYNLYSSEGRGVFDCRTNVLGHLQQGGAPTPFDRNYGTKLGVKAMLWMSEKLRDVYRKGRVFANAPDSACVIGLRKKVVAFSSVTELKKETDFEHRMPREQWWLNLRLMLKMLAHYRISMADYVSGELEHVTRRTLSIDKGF
Kind of assay: proximity ligation; in situ PLA (NaveniFlex kit) in VSMCs fixed with 4% paraformaldehyde, antibodies against PFKL and HDAC6; with or without PDGF-BB.

Amino acid sequences for entries named in this document (tags omitted).
UniProt A0A8I6GM68: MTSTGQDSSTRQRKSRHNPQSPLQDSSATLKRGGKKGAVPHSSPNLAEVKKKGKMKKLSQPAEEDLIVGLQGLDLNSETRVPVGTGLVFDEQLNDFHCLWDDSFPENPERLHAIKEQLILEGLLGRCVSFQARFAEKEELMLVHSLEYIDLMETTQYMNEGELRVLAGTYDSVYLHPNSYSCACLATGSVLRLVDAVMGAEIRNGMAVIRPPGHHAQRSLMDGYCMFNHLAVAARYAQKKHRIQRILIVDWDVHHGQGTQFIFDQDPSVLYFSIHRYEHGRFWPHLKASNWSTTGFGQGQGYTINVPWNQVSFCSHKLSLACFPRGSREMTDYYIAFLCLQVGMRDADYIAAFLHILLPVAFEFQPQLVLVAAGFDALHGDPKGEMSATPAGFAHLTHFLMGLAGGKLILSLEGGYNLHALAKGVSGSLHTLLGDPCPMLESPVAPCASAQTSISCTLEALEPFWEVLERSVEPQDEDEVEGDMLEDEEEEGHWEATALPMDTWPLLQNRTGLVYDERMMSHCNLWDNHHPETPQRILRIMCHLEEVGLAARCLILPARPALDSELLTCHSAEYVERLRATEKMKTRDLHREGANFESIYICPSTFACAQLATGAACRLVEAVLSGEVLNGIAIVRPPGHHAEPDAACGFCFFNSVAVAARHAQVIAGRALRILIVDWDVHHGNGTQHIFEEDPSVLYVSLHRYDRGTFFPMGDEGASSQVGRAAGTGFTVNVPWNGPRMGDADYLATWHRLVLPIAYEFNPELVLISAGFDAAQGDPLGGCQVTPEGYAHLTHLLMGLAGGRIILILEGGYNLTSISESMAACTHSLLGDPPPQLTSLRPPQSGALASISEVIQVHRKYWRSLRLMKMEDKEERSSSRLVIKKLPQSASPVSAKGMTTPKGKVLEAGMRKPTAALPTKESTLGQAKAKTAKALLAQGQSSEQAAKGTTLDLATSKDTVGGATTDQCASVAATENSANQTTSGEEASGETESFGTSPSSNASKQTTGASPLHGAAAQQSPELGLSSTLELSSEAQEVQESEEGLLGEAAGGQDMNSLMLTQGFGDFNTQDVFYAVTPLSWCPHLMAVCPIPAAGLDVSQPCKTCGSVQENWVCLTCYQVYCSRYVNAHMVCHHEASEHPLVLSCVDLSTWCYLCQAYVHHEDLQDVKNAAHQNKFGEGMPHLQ

For assay [2], the target named is T1, phosphofructokinase, liver type (PFKL) (rat (endogenous in primary rat VSMCs)). Kind of assay: co-IP; endogenous proteins in VSMC lysate (NP-40 lysis buffer), indicated antibodies and protein A/G agarose at 4 °C, Western blot; with or without PDGF-BB for 24 h.
Assay [3] deals with phosphofructokinase, muscle type (PFKM) (rat (endogenous in primary rat VSMCs)) (UniProt P47858). Kind of assay: cross-linking; VSMC lysate (700 ug protein in NP40 buffer) fixed with 0.1% glutaraldehyde on ice for 10 min, then Western blot; cells with or without PDGF-BB (10 ng/ml, different durations), TSA or NAM, or transduced with Ad-PFKL WT/K563Q/K563R.
The target of assay [4] is phosphofructokinase, platelet type (PFKP) (rat (endogenous in primary rat VSMCs)) (UniProt P47860). Described as above.

These are yes or no findings as the source states them, for the method shown. In cells and extracts the contact can be indirect. Some entries that bind do so weakly or less than the wild type.

Experimental findings from publication PMC12828377, “HDAC6-mediated PFKL deacetylation enhances aerobic glycolysis and promotes VSMC proliferation” (The Journal of Biological Chemistry, 2025) are described below.

“HDAC6 (from UniProt A0A8I6GM68 1-1183) (enzyme)”: the binding entry in assay [1] and in assay [2] was “binds” throughout.

B1: phosphofructokinase, muscle type (PFKM) (enzyme, UniProt P47858 1-780)
chain: MTHEEHHEAKTLGIGKAIAVLTSGGDAQGMNATVRAVVRVGIFTGLRVFFVHEGYQGLVDGGEHIREATWESVSMMLQLGGTVIGSARCKDFREREGRLRAAHNLVKRGITNLCVIGGDGSLTGADTFRSEWSDLLNDLQKDGKITAEERTKSSYLNIVFLVGSIDNDFCGTDMTIGTDSALHRIVEIVDAITTTAQSHQRTFVLEVMGRHCGYLALVTSLSCGADWVFIPECPPDDDWEEHLCRRLSETRTRGSRLNIIIVAEGAIDKNGKPITSEDIKNLVVKRLGYDTRVTVLGHVQRGGTPSAFDRILGSRMGVEAVMALLEGTPDTPACVVSLSGNTAVRLPLMECVQVTKDVTKAMDEKRFDEAIKLRGRSFMNNWEVYKLLAHVRPPVSKGGLHTVAVMNVGAPAAGMNAAVRSTVRIGLIQGNRVLVVHDGFEGLAKGQIEEAGWSYVGGWTGQGGSKLGTKRTLPKKNLEQISANITKYNIQGLVIIGGFEAYTGGLELMEGRKQFDELCIPFVVIPATVSNNVPGSDFSIGADTALNTICTTCDRIKQSAAGTKRRVFIIETMGGYCGYLATMAGLAAGADAAYIFEEPFTIRDLQVNVEHLVQKMKTTVKRGLVLRNEKCNENYTTDFIFNLYSEEGKGIFDSRKNVLGHMQQGGNPTPFDRNFATKMGAKATNWMSGKIKESYRNGRIFANTPDSGCVLGMRKRALVFQPVTELKDQTDFEHRIPKEQWWLKLRPILKILAKYEIDLDTSDHAHLEHISRKRSGEAAV
Consider B1, for which the binding result in assay [3] is recorded as “no binding”.

B2: phosphofructokinase, platelet type (PFKP) (enzyme, UniProt P47860 1-788)
chain: MSDQDSSTSSTSFPKYLEHLSGDGKAIGVLTSGGDAQGMNAAVRAVVRMGIYTGAKVYFIYEGYQGMVDGGSNIVEAKWECVSSILQVGGTIIGSARCQAFRSREGRLKAACNLVRLGITNLCVIGGDGSLTGANLFRKEWSGLLEELAKNGEIDSDTVKKHAYLNVVGMVGSIDNDFCGTDMTIGTDSALHRIIEVVDAIMTTAQSHQRTFVLEVMGRHCGYLALVSALACGADWVFLPESPPEEGWEEEMCLKLSENRARKKRLNIIIVSEGAIDTQNKPITSEKIKELVVTNLGFDTRVTILGHVQRGGTPSAFDRILASRMGVEAVLALLEATPETPACVVSLRGNQAVRLPLMECVQMTQDVQKAMDERRFDEAVKLRGRSFEGNLNTYKRLAIKEPDDKIPKSNCNVAIINVGAPAAGMNAAVRSAVRVGIAEGHKMFAIYDGFDGLANGQIKEIGWGDVGGWTGQGGSILGTKRTLPGKYLEKIAEQMHSKNINALLIIGGFEAYLGLLELAAARNKHEAFCVPMVMVPATVSNNVPGSDFSIGADTALNTITDTCDRIKQSASGTKRRVFIIETMGGYCGYLANMGGLAAGADAAYIFEEQFDIRDLQSNVMHLTEKMKTSIQRGLVLRNENCSVNYTTDFIYQLYSEEGKGVFDCRKNVLGHMQQGGAPSPFDRNFGTKISAKAMEWISAKLKGSHGTGKKFVSDDSICVLGIQKRDLLFKPVAELRKATDFEHRIPKQQWWLKLRPIMKILAKYEASYDMSDVGKLEPVHNHGELSAI
With B2, the binding result in assay [4] is reported as “no binding”.
